Results on one substance are retold here after patent US11141464B2 (Liu Jianning, priority 2018, dated 2021).

This data set can be described thus: general procedure: Fmoc solid-phase peptide synthesis; MBHA Rink amide resin; DIC/HOBt. As to conditions: whole synthesis, scale 100 g resin.

For the substance “His-Gly-Glu-Gly-Thr-Phe-Pro-Ser-Asp-Val-Ser-Ser-Tyr-Leu-Glu-Gly-Gln-Ala-Ala-Lys-Glu-Phe-Ile-Ala-Trp-Leu-Val-Lys-Gly-Arg-NH2 (HGEGTFPSDVSSYLEGQAAKEFIAWLVKGR; C-terminal amide; (30)..(30) NH2)”, the crude mass is listed as 220 g.
